Tested on: MMP-2 and -9
Assay: Cleavage of galectin-3 mutants substituted around the MMP cleavage site
Format: biochemical, human

Y63P: galectin-3 mutant with Y63P substitution around the MMP cleavage site
cleavage at the Ala62-Tyr63 site: resistance to cleavage
polypeptide produced from the new cleavage site (alternate cleavage at Gly32-Ala33): ~27 kDa
